Results: US7960349B2 (Bristol-Myers Squibb Company, priority 2006, dated 2011)

Columns and labels:
[1] = general procedure: Fmoc solid-phase peptide synthesis; Sieber amide; DIC/HOAt; HBTU/HOBt/DIEA; HATU/HOAt; conditions: whole synthesis
[2] = general procedure: Fmoc solid-phase peptide synthesis; Rink amide MBHA, Sieber amide or PAL resin; 2-chlorotrityl chloride resin for protected fragments; DIC/HOAt; HBTU/HOBt/DIEA; HATU/HOAt; conditions: whole synthesis, scale of the general procedure 0.1 mmol (ABI 433A)

## PEPTIDE1{H.[NMe-D-Ala].E.G.T.[aMe-Phe(2-F)].T.S.D.[Bip(2'-Et-4'-OMe)].[4-(2'-MePh)-3-PyAla].[am]}$$$$V2.0
[1]; scale 0.015 mmol
  isolated mass: 5.2 mg
[2]
  isolated yield: 18.5%

## PEPTIDE1{H.[aMePro].E.G.T.[aMePhe(2-F)].T.H.D.[Bip(2'-Et-4'-OMe)].[4-(2'-MePh)-3-PyrAla].[am]}$$$$V2.0
[1]; scale 0.05 mmol
  isolated mass: 21.7 mg
[2]
  isolated yield: 42%

HELM strings list residues between dots; [ac] is acetyl, [am] amide, other brackets name non-standard units.
